# Source: the supplement of paper PMC8728848
# The list shows a part of the results.
# Legend:
# Experiment in all cases: glycan array binding signal (z-score within array); higher = stronger binding
# Settings in all cases: glycan notation: IUPAC condensed, linker removed; mutation: D224N
# [1] = target: Fuc(a1-2)Gal6S(b1-3)GlcNAc
# Method in brief: (§1)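 Arrays were curated from the Consortium for Functional Glycomics database, 3228 in total, and kept only where the protein sequence was available. Binding is expressed as a within-array Z-score. This score was averaged across arrays of the same protein sequence at different concentrations or buffers and across linkers, and negative values can be read as non-binding.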
# [2] = target: Fuc(a1-2)Gal6S(b1-3)GlcNAc6S
# Method in brief: as §1
# Fuc(a1-2)Gal6S(b1-4)Glc = target: Fuc(a1-2)Gal6S(b1-4)Glc
# Method in brief: as §1
# [3] = target: Fuc(a1-2)Gal6S(b1-4)Glc6S
# Method in brief: as §1
# Fuc(a1-2)[Gal(a1-3)]Gal = target: Fuc(a1-2)[Gal(a1-3)]Gal
# Method in brief: as §1
# [4] = target: Fuc(a1-2)[Gal(a1-3)]Gal(b1-3)GalNAc
# Method in brief: as §1
# [5] = target: Fuc(a1-2)[Gal(a1-3)]Gal(b1-3)GalNAc(b1-3)Gal(a1-4)Gal(b1-4)Glc
# Method in brief: as §1
# [6] = target: Fuc(a1-2)[Gal(a1-3)]Gal(b1-3)GlcNAc
# Method in brief: as §1
# [7] = target: Fuc(a1-2)[Gal(a1-3)]Gal(b1-3)GlcNAc(b1-2)Man(a1-3)[Fuc(a1-2)[Gal(a1-3)]Gal(b1-3)GlcNAc(b1-2)Man(a1-6)]Man(b1-4)GlcNAc(b1-4)GlcNAc
# Method in brief: as §1
# [8] = target: Fuc(a1-2)[Gal(a1-3)]Gal(b1-3)GlcNAc(b1-2)Man(a1-3)[Fuc(a1-2)[Gal(a1-3)]Gal(b1-3)GlcNAc(b1-2)Man(a1-6)]Man(b1-4)GlcNAc(b1-4)[Fuc(a1-6)]GlcNAc
# Method in brief: as §1
# [9] = target: Fuc(a1-2)[Gal(a1-3)]Gal(b1-3)GlcNAc(b1-3)GalNAc
# Method in brief: as §1
# [10] = target: Fuc(a1-2)[Gal(a1-3)]Gal(b1-3)GlcNAc(b1-6)GalNAc
# Method in brief: as §1
# [11] = target: Fuc(a1-2)[Gal(a1-3)]Gal(b1-4)Glc
# Method in brief: as §1
# [12] = target: Fuc(a1-2)[Gal(a1-3)]Gal(b1-4)GlcNAc
# Method in brief: as §1
# [13] = target: Fuc(a1-2)[Gal(a1-3)]Gal(b1-4)GlcNAc(b1-2)Man
# Method in brief: as §1
# [14] = target: Fuc(a1-2)[Gal(a1-3)]Gal(b1-4)GlcNAc(b1-2)Man(a1-3)[Fuc(a1-2)[Gal(a1-3)]Gal(b1-4)GlcNAc(b1-2)Man(a1-6)]Man(b1-4)GlcNAc(b1-4)GlcNAc
# Method in brief: as §1
# [15] = target: Fuc(a1-2)[Gal(a1-3)]Gal(b1-4)GlcNAc(b1-2)Man(a1-3)[Fuc(a1-2)[Gal(a1-3)]Gal(b1-4)GlcNAc(b1-2)Man(a1-6)]Man(b1-4)GlcNAc(b1-4)[Fuc(a1-6)]GlcNAc
# Method in brief: as §1
# [16] = target: Fuc(a1-2)[Gal(a1-3)]Gal(b1-4)GlcNAc(b1-3)GalNAc
# Method in brief: as §1
# [17] = target: Fuc(a1-2)[Gal(a1-3)]Gal(b1-4)GlcNAc(b1-3)[Fuc(a1-2)[Gal(a1-3)]Gal(b1-4)GlcNAc(b1-6)]GalNAc
# Method in brief: as §1
# [18] = target: Fuc(a1-2)[Gal(a1-3)]Gal(b1-4)GlcNAc(b1-6)GalNAc
# Method in brief: as §1
# [19] = target: Fuc(a1-2)[Gal(a1-3)]Gal(b1-4)[Fuc(a1-3)]Glc
# Method in brief: as §1
# [20] = target: Fuc(a1-2)[Gal(a1-3)]Gal(b1-4)[Fuc(a1-3)]GlcNAc
# Method in brief: as §1
# [21] = target: Fuc(a1-2)[Gal(a1-3)]Gal(b1-4)[Fuc(a1-3)]GlcNAc(b1-3)GalNAc
# Method in brief: as §1
# [22] = target: Fuc(a1-2)[Gal(a1-4)]Gal(b1-4)GlcNAc
# Method in brief: as §1
# [23] = target: Fuc(a1-2)[GalNAc(a1-3)]Gal
# Method in brief: as §1
# [24] = target: Fuc(a1-2)[GalNAc(a1-3)]Gal(b1-3)GalNAc(a1-3)[Fuc(a1-2)]Gal(b1-4)GlcNAc
# Method in brief: as §1
# [25] = target: Fuc(a1-2)[GalNAc(a1-3)]Gal(b1-3)GalNAc(b1-3)Gal(a1-4)Gal(b1-4)Glc
# Method in brief: as §1
# [26] = target: Fuc(a1-2)[GalNAc(a1-3)]Gal(b1-3)GlcNAc
# Method in brief: as §1
# [27] = target: Fuc(a1-2)[GalNAc(a1-3)]Gal(b1-3)GlcNAc(b1-2)Man(a1-3)[Fuc(a1-2)[GalNAc(a1-3)]Gal(b1-3)GlcNAc(b1-2)Man(a1-6)]Man(b1-4)GlcNAc(b1-4)GlcNAc
# Method in brief: as §1
# [28] = target: Fuc(a1-2)[GalNAc(a1-3)]Gal(b1-3)GlcNAc(b1-2)Man(a1-3)[Fuc(a1-2)[GalNAc(a1-3)]Gal(b1-3)GlcNAc(b1-2)Man(a1-6)]Man(b1-4)GlcNAc(b1-4)[Fuc(a1-6)]GlcNAc
# Method in brief: as §1
# [29] = target: Fuc(a1-2)[GalNAc(a1-3)]Gal(b1-3)GlcNAc(b1-3)GalNAc
# Method in brief: as §1
# [30] = target: Fuc(a1-2)[GalNAc(a1-3)]Gal(b1-3)GlcNAc(b1-6)GalNAc
# Method in brief: as §1
# [31] = target: Fuc(a1-2)[GalNAc(a1-3)]Gal(b1-4)Glc
# Method in brief: as §1
# [32] = target: Fuc(a1-2)[GalNAc(a1-3)]Gal(b1-4)GlcNAc
# Method in brief: as §1
# [33] = target: Fuc(a1-2)[GalNAc(a1-3)]Gal(b1-4)GlcNAc(b1-2)Man
# Method in brief: as §1
# [34] = target: Fuc(a1-2)[GalNAc(a1-3)]Gal(b1-4)GlcNAc(b1-2)Man(a1-3)[Fuc(a1-2)[GalNAc(a1-3)]Gal(b1-4)GlcNAc(b1-2)Man(a1-6)]Man(b1-4)GlcNAc(b1-4)GlcNAc
# Method in brief: as §1
# [35] = target: Fuc(a1-2)[GalNAc(a1-3)]Gal(b1-4)GlcNAc(b1-2)Man(a1-3)[Fuc(a1-2)[GalNAc(a1-3)]Gal(b1-4)GlcNAc(b1-2)Man(a1-6)]Man(b1-4)GlcNAc(b1-4)[Fuc(a1-6)]GlcNAc
# Method in brief: as §1
# [36] = target: Fuc(a1-2)[GalNAc(a1-3)]Gal(b1-4)GlcNAc(b1-3)Gal(b1-4)GlcNAc
# Method in brief: as §1
# [37] = target: Fuc(a1-2)[GalNAc(a1-3)]Gal(b1-4)GlcNAc(b1-3)Gal(b1-4)GlcNAc(b1-3)Gal(b1-4)GlcNAc
# Method in brief: as §1
# [38] = target: Fuc(a1-2)[GalNAc(a1-3)]Gal(b1-4)GlcNAc(b1-3)GalNAc
# Method in brief: as §1
# [39] = target: Fuc(a1-2)[GalNAc(a1-3)]Gal(b1-4)GlcNAc(b1-3)[Fuc(a1-2)[GalNAc(a1-3)]Gal(b1-4)GlcNAc(b1-6)]GalNAc
# Method in brief: as §1
# [40] = target: Fuc(a1-2)[GalNAc(a1-3)]Gal(b1-4)GlcNAc(b1-6)GalNAc
# Method in brief: as §1
# [41] = target: Fuc(a1-2)[GalNAc(a1-3)]Gal(b1-4)[Fuc(a1-3)]GlcNAc
# Method in brief: as §1
# [42] = target: Fuc(a1-2)[GalNAc(a1-3)]Gal(b1-4)[Fuc(a1-3)]GlcNAc(b1-3)GalNAc
# Method in brief: as §1
# [43] = target: Fuc(a1-2)[GalNAc(a1-4)]Gal(b1-4)GlcNAc
# Method in brief: as §1
binder,measurement,setting,value
a L Fucosidase (Thermotoga maritima) (protein) MASMKPRYKPDWESLREHTVPKWFDKAKFGIFIHWGIYSVPGWATPTGELGKVPMDAWFFQNPYAEWYENSLRIKESPTWEYHVKTYGENFEYEKFADLFTAEKWDPQEWADLFKKAGAKYVIPTTKHHDGFCLWGTKYTDFNSVKRGPKRDLVGDLAKAVREAGLRFGVYYSGGLDWRFTTEPIRYPEDLSYIRPNTYEYADYAYKQVMELVDLYLPDVLWNNMGWPEKGKEDLKYLFAYYYNKHPEGSVNDRWGVPHWDFKTAEYHVNYPGDLPGYKWEFTRGIGLSFGYNRNEGPEHMLSVEQLVYTLVDVVSKGGNLLLNVGPKGDGTIPDLQKERLLGLGEWLRKYGDAIYGTSVWERCCAKTEDGTEIRFTRKCNRIFVIFLGIPTGEKIVIEDLNLSAGTVRHFLTGERLSFKNVGKNLEITVPKKLLETDSITLVLEAVEE,glycan array binding signal (z-score),[1],-0.336
same,glycan array binding signal (z-score),[2],0.48
same,glycan array binding signal (z-score),Fuc(a1-2)Gal6S(b1-4)Glc,-0.936
same,glycan array binding signal (z-score),[3],-0.485
same,glycan array binding signal (z-score),Fuc(a1-2)[Gal(a1-3)]Gal,-0.439
same,glycan array binding signal (z-score),[4],-0.35
same,glycan array binding signal (z-score),[5],-0.757
same,glycan array binding signal (z-score),[6],-0.641
same,glycan array binding signal (z-score),[7],0.112
same,glycan array binding signal (z-score),[8],1.3
same,glycan array binding signal (z-score),[9],-0.656
same,glycan array binding signal (z-score),[10],0.367
same,glycan array binding signal (z-score),[11],0.011
same,glycan array binding signal (z-score),[12],-0.916
same,glycan array binding signal (z-score),[13],0.54
same,glycan array binding signal (z-score),[14],0.458
same,glycan array binding signal (z-score),[15],-0.853
same,glycan array binding signal (z-score),[16],-0.305
same,glycan array binding signal (z-score),[17],0.828
same,glycan array binding signal (z-score),[18],-0.437
same,glycan array binding signal (z-score),[19],-0.847
same,glycan array binding signal (z-score),[20],0.338
same,glycan array binding signal (z-score),[21],0.129
same,glycan array binding signal (z-score),[22],0.573
same,glycan array binding signal (z-score),[23],0.54
same,glycan array binding signal (z-score),[24],-0.304
same,glycan array binding signal (z-score),[25],-0.035
same,glycan array binding signal (z-score),[26],2.8
same,glycan array binding signal (z-score),[27],0.093
same,glycan array binding signal (z-score),[28],0.058
same,glycan array binding signal (z-score),[29],-0.058
same,glycan array binding signal (z-score),[30],-0.655
same,glycan array binding signal (z-score),[31],-0.503
same,glycan array binding signal (z-score),[32],-0.808
same,glycan array binding signal (z-score),[33],-0.899
same,glycan array binding signal (z-score),[34],0.374
same,glycan array binding signal (z-score),[35],0.588
same,glycan array binding signal (z-score),[36],1.02
same,glycan array binding signal (z-score),[37],0.201
same,glycan array binding signal (z-score),[38],-0.608
same,glycan array binding signal (z-score),[39],-0.644
same,glycan array binding signal (z-score),[40],-1.05
same,glycan array binding signal (z-score),[41],-0.067
same,glycan array binding signal (z-score),[42],0.894
same,glycan array binding signal (z-score),[43],-0.836

# Three successive entries out of the list so far, quoted:
binder,measurement,setting,value
a L Fucosidase (Thermotoga maritima) (protein) MASMKPRYKPDWESLREHTVPKWFDKAKFGIFIHWGIYSVPGWATPTGELGKVPMDAWFFQNPYAEWYENSLRIKESPTWEYHVKTYGENFEYEKFADLFTAEKWDPQEWADLFKKAGAKYVIPTTKHHDGFCLWGTKYTDFNSVKRGPKRDLVGDLAKAVREAGLRFGVYYSGGLDWRFTTEPIRYPEDLSYIRPNTYEYADYAYKQVMELVDLYLPDVLWNNMGWPEKGKEDLKYLFAYYYNKHPEGSVNDRWGVPHWDFKTAEYHVNYPGDLPGYKWEFTRGIGLSFGYNRNEGPEHMLSVEQLVYTLVDVVSKGGNLLLNVGPKGDGTIPDLQKERLLGLGEWLRKYGDAIYGTSVWERCCAKTEDGTEIRFTRKCNRIFVIFLGIPTGEKIVIEDLNLSAGTVRHFLTGERLSFKNVGKNLEITVPKKLLETDSITLVLEAVEE,glycan array binding signal (z-score),[8],1.3
same,glycan array binding signal (z-score),[9],-0.656
same,glycan array binding signal (z-score),[10],0.367
